Assay results from patent publication US20220127355A1 (INTEGRAL MOLECULAR, published 2022).
These are yes or no findings as the source states them, for the method shown. Some results given as binding are weak or reduced against the parent protein; the word gives no strength.

T1: Claudin 3 (UniProt O15551 1-220)
T1 construct: also called CLDN3
T1 sequence (looked up): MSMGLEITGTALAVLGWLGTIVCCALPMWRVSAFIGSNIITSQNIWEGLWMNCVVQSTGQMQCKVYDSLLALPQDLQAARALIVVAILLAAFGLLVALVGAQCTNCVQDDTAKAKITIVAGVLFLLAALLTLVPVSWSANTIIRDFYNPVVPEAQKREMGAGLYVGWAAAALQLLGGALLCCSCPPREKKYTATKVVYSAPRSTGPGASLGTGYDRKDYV

T2: Claudin 4 (UniProt O14493 1-209)
T2 construct: also called CLDN4
T2 sequence (looked up): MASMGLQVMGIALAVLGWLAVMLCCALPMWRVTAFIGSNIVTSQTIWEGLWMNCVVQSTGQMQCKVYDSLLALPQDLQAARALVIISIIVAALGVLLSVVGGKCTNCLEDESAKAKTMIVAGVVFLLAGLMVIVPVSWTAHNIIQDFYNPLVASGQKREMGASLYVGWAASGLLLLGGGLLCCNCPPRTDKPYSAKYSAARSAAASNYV

T3: Claudin 9 (UniProt O95484 1-217)
T3 construct: Octet KD values: intact claudin protein embedded in virus-like particles (lipoparticles); also called CLDN9
T3 sequence (looked up): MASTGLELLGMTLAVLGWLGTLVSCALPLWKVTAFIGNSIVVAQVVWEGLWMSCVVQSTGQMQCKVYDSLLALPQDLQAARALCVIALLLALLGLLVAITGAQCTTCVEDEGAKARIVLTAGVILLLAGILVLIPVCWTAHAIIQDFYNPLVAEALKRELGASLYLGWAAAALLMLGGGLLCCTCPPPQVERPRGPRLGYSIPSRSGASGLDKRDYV


Experiments:
[1] = biological target: T1, Claudin 3; experiment: binding assay of the 13th table, method not described
[2] = biological target: T2, Claudin 4; experiment: as above
[3] = biological target: T3, Claudin 9; experiment: as above
[4] = biological target: T2, Claudin 4; experiment: flow cytometry, HEK-293T cells transiently transfected with the indicated claudin; pUC19 = empty vector control
Procedure: (§1) FIG. 2 illustrates the results of a binding assay showing that Claudin 6 MAbs bind to human Claudin 6 preferentially over other Claudin proteins. Human embryonic kidney 293T (HEK-293T) cells were transiently transfected with DNA for the indicated Claudin protein or empty vector along with GFP (pUC) for 22 hours.

[5] = biological target: T1, Claudin 3; experiment: as above
Procedure: as §1

[6] = biological target: T3, Claudin 9; experiment: as above
Procedure: as §1

Row | Binder | binding [2] | binding [3] | binding [4] | binding [6] | further results
1 | IM173 (antibody, V domains shown, Detected with anti-human IgG Fc secondary) VH: AVTLDESGGGLQTPGGALSLVCKASGFTFSSYSMFWVRRAPGKGLEWVAGIDSGSTTFYGSAVKGRATISRDNGQSTVRLQLNNLRAEDTATYYCAKDAYGYCGWSGCSADSIDAWGHGTEVIVSS VL: ALTQPSSVSANPGGTVEITCSGGNNYYGWYQQKSPGSAPVTVIYYNDKRPSDIPSRFSGSKSGSTGTLTITGVQADDEAVYFCGGWDSSGGIFGAGTTLTVL | – | – | binds | – | –
2 | IM172 (antibody, V domains shown, Detected with anti-human IgG Fc secondary) VH: AVTLDESGGGLQTPGGALSLVCKGSGFSISSYTMQWVRQAPGKGLEWVAGIYSGSRTYYGAAVQGRATISRDNGQSTVRLQLNNLRAEDTGTYYCAKSSYCTAWTGCDVYAGGSIDAWGHGTEVIVSS VL: ALTQPSSVSATPGGTVEITCSGDSSDDGSYYYGWYQQKSPGSAPVTVIYSNDKRPSSIPSRFSGSASGSTATLTITGVQADDEAVYFCGSYDSSTGIFGAGTTLTVL | – | – | binds | binds | binding [5]: binds
3 | IM171 (antibody, V domains shown, Detected with anti-human IgG Fc secondary; also called LM171) VH: AVTLDESGGGLQTPGGALSLVCKASGFDFSSYAMNWVRQAPGKGLEWVAGIGSTGSSTGYGPAVKGRATISRDNGQSTLRLQLNNLRAEDTAIYYCAKSVGNGNSWSGYIATSIDAWGHGTEVIVSS VL: ALTQPSSVSANLGGTVKLTCSGGSSGYGWYQQKSPGSAPVTVIYSNDKRPSDIPSRFSGSLSGSTGTLTITGVQADDEAVYFCGSTDNSYVGIFGAGTTLTVL | – | – | – | binds | –

Second part, led by results:

Row | binding [2] | binding [3] | Binder | binding [4] | binding [6] | further results
4 | binds | binds | IM-35-N1F09-1HA (antibody, V domains shown) VH: EVQLLESGGGLVQPGGSLRLSCAASGFTFSSYGMSWVRQAPGKGLEWVAGIGSSGIYTHYADSVKGRFTISRDNSKNTLYLQMNSLRAEDTAVYYCAKSPGDSDWCGWAGYGIYSCRVAGFIDAWGQGTLVTVSS VL: SYELTQPPSVSVSPGQTARITCSGGYNGHYGWYQQKPGQAPVLVIYGTNKRPSGIPERFSGSSSGTTVTLTISGVQAEDEADYYCGGYDSSAGIFGGGTKLTVL | – | – | binding [1]: binds
5 | binds | binds | IM-271-1HGT (antibody, V domains shown, also called CH-HAMF5-1HGT) VH: EVQLLESGGGLVQPGGSLRLSCAASGFTFSSYAMNWVRQAPGKGLEWVAGISSSGRYTGYADSVKGRFTISRDNSKNTLYLQMNSLRAEDTAVYYCAKSVGSGVSWSGYVATSLDVWGQGTLVTVSS VL: SYELTQPPSVSVSPGQTARITCSAGSGLYGWYQQKPGQAPVLVIYGTNKRPSGIPERFSGSSSGTTVTLTISGVQAEDEADYYCGSNDASTNAGIFGGGTKLTVL | – | – | –
6 | – | binds | IM-35-N2H07-1HA (antibody, V domains shown) VH: EVQLLESGGGLVQPGGSLRLSCAASGFTFSGYAMSWVRQAPGKGLEWVAGIYSSGSYTFYADSVKGRFTISRDNSKNTLYLQMNSLRAEDTAVYYCAKGTGYCDWSGWCYSGAANIDAWGQGTLVTVSS VL: SYELTQPPSVSVSPGQTARITCSGGSGSYGYYGWYQQKPGQAPVLVIYGTNKRPSGIPERFSGSSSGTTVTLTISGVQAEDEADYYCGSEDSSSGAGIFGGGTKLTVL | – | – | –
